± gives the standard deviation of the averaged measurements. The list shows a part of the results, in another mix than the full data.
Columns and labels:
Experiment in all cases: NP40-soluble protein abundance relative to vehicle (solubility fold change) (ratio); higher = more soluble protein in presence of ATP
[1] = biological target: T1, UniProt Q8WYQ5 and related entries
T1 sequence (whole entry): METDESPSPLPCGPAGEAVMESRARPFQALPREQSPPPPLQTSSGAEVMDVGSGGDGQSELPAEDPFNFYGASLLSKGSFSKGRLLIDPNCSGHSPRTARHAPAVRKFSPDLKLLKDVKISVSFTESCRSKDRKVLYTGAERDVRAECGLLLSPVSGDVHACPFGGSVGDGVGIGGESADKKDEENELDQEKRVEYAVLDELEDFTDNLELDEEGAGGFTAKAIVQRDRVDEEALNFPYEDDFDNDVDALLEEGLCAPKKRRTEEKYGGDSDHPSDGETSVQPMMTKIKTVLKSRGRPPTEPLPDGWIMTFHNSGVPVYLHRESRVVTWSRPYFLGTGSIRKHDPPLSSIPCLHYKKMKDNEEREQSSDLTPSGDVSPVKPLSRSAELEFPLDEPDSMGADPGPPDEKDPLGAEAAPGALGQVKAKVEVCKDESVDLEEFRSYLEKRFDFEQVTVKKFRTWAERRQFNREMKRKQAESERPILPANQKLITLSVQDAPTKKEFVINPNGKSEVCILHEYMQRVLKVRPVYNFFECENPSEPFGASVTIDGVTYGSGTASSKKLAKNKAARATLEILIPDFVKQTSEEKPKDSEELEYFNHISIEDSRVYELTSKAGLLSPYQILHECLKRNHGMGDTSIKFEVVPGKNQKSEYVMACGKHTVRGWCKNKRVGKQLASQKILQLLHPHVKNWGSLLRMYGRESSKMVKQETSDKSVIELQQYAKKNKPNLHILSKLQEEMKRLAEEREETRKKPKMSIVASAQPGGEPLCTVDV
Summary of the method: (§1)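 Jurkat crude lysate prepared with a Dounce homogeniser was treated at eight concentrations spanning 0.1 to 10 mM, 10 min at room temperature then 3 min at 37 °C. Solubilisation with 0.8% NP40 and benzonase and ultracentrifugation preceded TMT labelling of the supernatant for LC-MS/MS. Fold change against the detergent-processed vehicle was determined per replicate from vsn-normalised intensities, across three independent experiments.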

[2] = biological target: T2, UniProt Q92896 and related entries
T2 sequence (whole entry): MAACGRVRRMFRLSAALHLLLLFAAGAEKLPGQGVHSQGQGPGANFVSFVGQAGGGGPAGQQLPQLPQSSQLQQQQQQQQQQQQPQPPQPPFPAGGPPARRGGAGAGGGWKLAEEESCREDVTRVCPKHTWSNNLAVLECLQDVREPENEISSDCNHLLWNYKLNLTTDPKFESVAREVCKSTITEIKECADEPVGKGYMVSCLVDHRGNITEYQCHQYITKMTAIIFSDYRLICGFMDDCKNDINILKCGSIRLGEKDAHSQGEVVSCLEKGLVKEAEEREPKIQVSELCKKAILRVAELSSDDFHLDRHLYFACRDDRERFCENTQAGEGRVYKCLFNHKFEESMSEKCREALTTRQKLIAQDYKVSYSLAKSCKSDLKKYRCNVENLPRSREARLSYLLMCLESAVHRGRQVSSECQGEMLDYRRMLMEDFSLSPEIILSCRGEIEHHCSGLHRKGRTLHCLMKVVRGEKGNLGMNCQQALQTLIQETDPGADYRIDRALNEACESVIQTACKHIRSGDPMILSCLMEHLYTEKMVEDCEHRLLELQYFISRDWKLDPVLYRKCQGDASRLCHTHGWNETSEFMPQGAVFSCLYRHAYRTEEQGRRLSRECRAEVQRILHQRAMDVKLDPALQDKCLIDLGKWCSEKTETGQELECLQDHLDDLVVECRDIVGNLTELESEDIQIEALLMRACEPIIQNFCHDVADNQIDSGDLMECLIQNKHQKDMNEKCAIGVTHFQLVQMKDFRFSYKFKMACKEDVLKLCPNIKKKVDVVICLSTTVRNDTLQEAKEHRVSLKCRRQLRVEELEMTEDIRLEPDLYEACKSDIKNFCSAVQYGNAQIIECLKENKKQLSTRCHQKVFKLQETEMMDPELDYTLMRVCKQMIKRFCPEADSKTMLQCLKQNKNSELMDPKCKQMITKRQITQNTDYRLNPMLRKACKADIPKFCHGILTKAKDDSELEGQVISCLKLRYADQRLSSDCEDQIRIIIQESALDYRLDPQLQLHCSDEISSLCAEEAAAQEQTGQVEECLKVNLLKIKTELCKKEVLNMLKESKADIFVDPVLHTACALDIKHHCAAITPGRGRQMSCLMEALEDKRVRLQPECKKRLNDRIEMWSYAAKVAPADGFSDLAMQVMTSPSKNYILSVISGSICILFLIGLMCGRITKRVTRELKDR
Summary of the method: as §1

[3] = biological target: T3, UniProt Q969V3 and related entries
T3 sequence (whole entry): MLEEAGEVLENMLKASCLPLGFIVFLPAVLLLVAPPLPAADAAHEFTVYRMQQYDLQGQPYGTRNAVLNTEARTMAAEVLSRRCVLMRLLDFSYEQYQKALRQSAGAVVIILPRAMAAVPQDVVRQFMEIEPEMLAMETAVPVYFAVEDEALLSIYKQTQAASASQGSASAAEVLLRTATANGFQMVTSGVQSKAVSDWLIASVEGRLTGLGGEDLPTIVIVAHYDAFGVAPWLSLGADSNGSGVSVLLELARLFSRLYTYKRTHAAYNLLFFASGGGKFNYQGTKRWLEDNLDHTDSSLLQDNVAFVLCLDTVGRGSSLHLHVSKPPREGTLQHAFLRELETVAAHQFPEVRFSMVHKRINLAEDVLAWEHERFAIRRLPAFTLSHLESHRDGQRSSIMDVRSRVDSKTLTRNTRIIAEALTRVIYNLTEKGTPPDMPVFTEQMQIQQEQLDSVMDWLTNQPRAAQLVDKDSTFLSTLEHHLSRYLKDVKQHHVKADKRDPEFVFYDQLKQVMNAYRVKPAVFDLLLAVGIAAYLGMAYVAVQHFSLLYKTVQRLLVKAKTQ
Summary of the method: as §1

[4] = biological target: T4, UniProt Q96AX2 and related entries
T4 sequence (whole entry): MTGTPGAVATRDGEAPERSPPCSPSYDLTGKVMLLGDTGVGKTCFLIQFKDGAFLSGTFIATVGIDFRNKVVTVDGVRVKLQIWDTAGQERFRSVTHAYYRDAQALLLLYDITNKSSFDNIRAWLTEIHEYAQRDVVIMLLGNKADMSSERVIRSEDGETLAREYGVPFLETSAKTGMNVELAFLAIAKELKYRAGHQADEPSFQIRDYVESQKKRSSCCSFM
Summary of the method: as §1

[5] = biological target: T5, UniProt Q96AY2 and related entries
T5 sequence (whole entry): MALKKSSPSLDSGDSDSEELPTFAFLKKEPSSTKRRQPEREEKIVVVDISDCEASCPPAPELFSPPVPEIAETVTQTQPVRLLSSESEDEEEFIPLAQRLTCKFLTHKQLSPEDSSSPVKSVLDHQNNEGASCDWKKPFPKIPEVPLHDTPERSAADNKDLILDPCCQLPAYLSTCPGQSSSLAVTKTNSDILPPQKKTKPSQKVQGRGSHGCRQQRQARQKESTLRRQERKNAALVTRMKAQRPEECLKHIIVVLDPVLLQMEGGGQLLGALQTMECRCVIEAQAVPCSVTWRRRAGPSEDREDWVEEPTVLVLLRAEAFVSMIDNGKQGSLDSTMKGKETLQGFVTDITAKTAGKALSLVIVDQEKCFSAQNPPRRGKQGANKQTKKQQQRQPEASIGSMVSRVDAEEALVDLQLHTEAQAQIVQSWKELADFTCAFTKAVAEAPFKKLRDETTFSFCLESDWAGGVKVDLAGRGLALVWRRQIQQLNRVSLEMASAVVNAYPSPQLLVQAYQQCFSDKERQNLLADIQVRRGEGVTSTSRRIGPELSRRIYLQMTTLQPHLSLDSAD
Summary of the method: as §1

WASF1 = biological target: T6, WASF1 (UniProt Q92558)
T6 sequence (whole entry): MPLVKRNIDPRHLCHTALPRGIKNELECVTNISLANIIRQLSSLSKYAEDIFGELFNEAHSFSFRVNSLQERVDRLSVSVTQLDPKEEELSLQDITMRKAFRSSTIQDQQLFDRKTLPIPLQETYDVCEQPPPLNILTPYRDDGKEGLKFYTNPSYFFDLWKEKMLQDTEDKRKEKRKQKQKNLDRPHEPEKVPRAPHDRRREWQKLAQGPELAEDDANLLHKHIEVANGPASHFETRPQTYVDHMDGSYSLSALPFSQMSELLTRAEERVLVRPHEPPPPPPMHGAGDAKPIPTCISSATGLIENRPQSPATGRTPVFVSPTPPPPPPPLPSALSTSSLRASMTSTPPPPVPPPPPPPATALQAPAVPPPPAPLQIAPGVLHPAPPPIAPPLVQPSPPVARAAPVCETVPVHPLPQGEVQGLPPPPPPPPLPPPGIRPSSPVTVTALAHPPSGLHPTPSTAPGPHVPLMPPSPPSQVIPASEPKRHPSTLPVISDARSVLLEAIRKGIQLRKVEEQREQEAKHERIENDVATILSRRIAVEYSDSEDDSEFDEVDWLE
Summary of the method: as §1

With `Nc1ncnc2c1ncn2[C@@H]1O[C@H](COP(=O)(O)OP(=O)(O)OP(=O)(O)O)[C@@H](O)[C@H]1O` [adenosine triphosphate] the NP40-soluble protein abundance ([1]; concentration: 6mM) was 1.33 ± 0.092, the NP40-soluble protein abundance ([1]; concentration: 8mM) was 1.3 ± 0.075 and the NP40-soluble protein abundance ([1]; concentration: 10mM) was 1.36 ± 0.095. It also gave an NP40-soluble protein abundance ([2]; concentration: 1mM) of 0.967 ± 0.053, an NP40-soluble protein abundance ([2]; concentration: 2mM) of 0.969 ± 0.034 and an NP40-soluble protein abundance ([2]; concentration: 4mM) of 0.947 ± 0.021. The NP40-soluble protein abundance ([2]; concentration: 6mM) was 0.989 ± 0.036, the NP40-soluble protein abundance ([2]; concentration: 8mM) was 0.9241 ± 0.0058 and the NP40-soluble protein abundance ([2]; concentration: 10mM) was 0.937 ± 0.01. For the same compound, the NP40-soluble protein abundance ([3]; concentration: 1mM) was 1.02 ± 0.094, the NP40-soluble protein abundance ([3]; concentration: 2mM) was 1.02 ± 0.074 and the NP40-soluble protein abundance ([3]; concentration: 4mM) was 1.03 ± 0.072. It also gave an NP40-soluble protein abundance ([3]; concentration: 6mM) of 0.953 ± 0.085, an NP40-soluble protein abundance ([3]; concentration: 8mM) of 1.02 ± 0.052 and an NP40-soluble protein abundance ([3]; concentration: 10mM) of 1.03 ± 0.055. For the same compound, the NP40-soluble protein abundance ([4]; concentration: 1mM) was 0.994 ± 0.072, the NP40-soluble protein abundance ([4]; concentration: 2mM) was 0.985 ± 0.1 and the NP40-soluble protein abundance ([4]; concentration: 4mM) was 0.965 ± 0.14. It also gave an NP40-soluble protein abundance ([4]; concentration: 6mM) of 0.928 ± 0.12, an NP40-soluble protein abundance ([4]; concentration: 8mM) of 0.989 ± 0.063 and an NP40-soluble protein abundance ([4]; concentration: 10mM) of 0.978 ± 0.089. The NP40-soluble protein abundance ([5]; concentration: 1mM) was 1.11 ± 0.18, the NP40-soluble protein abundance ([5]; concentration: 2mM) was 1.05 ± 0.093 and the NP40-soluble protein abundance ([5]; concentration: 4mM) was 1.02 ± 0.02. The NP40-soluble protein abundance ([5]; concentration: 6mM) was 0.893 ± 0.084, the NP40-soluble protein abundance ([5]; concentration: 8mM) was 0.999 ± 0.011 and the NP40-soluble protein abundance ([5]; concentration: 10mM) was 1.03 ± 0.046. For the same compound, the NP40-soluble protein abundance (WASF1; concentration: 1mM) was 0.94 ± 0.068, the NP40-soluble protein abundance (WASF1; concentration: 2mM) was 0.97 ± 0.042 and the NP40-soluble protein abundance (WASF1; concentration: 4mM) was 0.971 ± 0.032. It also gave an NP40-soluble protein abundance (WASF1; concentration: 6mM) of 0.998 ± 0.044, an NP40-soluble protein abundance (WASF1; concentration: 8mM) of 0.949 ± 0.033 and an NP40-soluble protein abundance (WASF1; concentration: 10mM) of 0.96 ± 0.015.

Reference: the supplement of paper PMC6411743
